Values of other authors, collected in patent US20120276003A1, “COMPOUND CONTAINING AN OXYGEN-15, PREPARATION AND USE THEREOF, AND COMPOSITION COMPRISING THEREOF” (Beijing Top Grade Medical Equipment Co., Ltd., priority 2011, published 2012).
Some of these results come from one statement about several compounds together. At least one structure is not confirmed: it was looked up by name or label, or the drawing left a doubt.

Details: perfusion imaging agent; stated 'academically'

[99Tc].[C-]#[N+]CC(C)(C)OC.[C-]#[N+]CC(C)(C)OC.[C-]#[N+]CC(C)(C)OC.[C-]#[N+]CC(C)(C)OC.[C-]#[N+]CC(C)(C)OC.[C-]#[N+]CC(C)(C)OC [99 mTc-MIBI]
one-time through uptake rate: 70%-75%
